Laboratory results as given in PubChem BioAssay (NCI).
What follows is the remainder of the data, with few or none of the hits. Activity calls are given as the source filed them. Rule as the data show it: active = growth inhibition above about 70%; inactive = the rest.

Experiments:
[1] = NCI Yeast Anticancer Drug Screen. Data for the wt1 strain (AID 149);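 also: 0% = growth of vehicle-treated wt1 cultures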; details: S. cerevisiae wt1 strain (SPY 50644) growth inhibition, active compounds read high
How it was run: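 Growth inhibition read against vehicle controls after compound exposure of the wt1 yeast strain.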

[2] = NCI Yeast Anticancer Drug Screen. Data for the rad50EPP+ strain (AID 151);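 also: 0% = growth of vehicle-treated control cultures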; details: S. cerevisiae rad50 mutant strain, active compounds read high
How it was run: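 Measured: growth inhibition of rad50EPP+ yeast. Reference: vehicle-treated controls. Screen uses strains with defined genetic alterations in DNA damage repair or cell cycle control.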

[3] = NCI Yeast Anticancer Drug Screen. Data for the rad14 strain (AID 159);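 also: 0% = growth of vehicle-treated control cultures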; details: S. cerevisiae rad14 strain growth inhibition, active compounds read high
How it was run: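 Growth inhibition vs vehicle controls; genetically altered yeast strain (DNA damage repair defect) treated with test compounds.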

[4] = NCI Yeast Anticancer Drug Screen. Data for the wt2 strain (AID 169);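 also: 0% = growth of vehicle-treated yeast cultures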; details: S. cerevisiae wt2 strain growth inhibition, active compounds read high
How it was run: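 Growth of compound-treated yeast is measured and expressed as inhibition relative to vehicle-only controls.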

[5] = NCI Yeast Anticancer Drug Screen. Data for the mlh1 strain (AID 171);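 also: 0% = growth of vehicle-treated control cultures of the same strain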; details: S. cerevisiae mlh1 strain growth inhibition, active compounds read high
How it was run: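 Test agents were incubated with yeast bearing a defined DNA damage repair or cell cycle control alteration; values are growth inhibition normalised to vehicle-treated cultures.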

[6] = NCI Yeast Anticancer Drug Screen. Data for the sgs1 strain (AID 173);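 also: 0% = growth of vehicle-only control cultures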; details: S. cerevisiae sgs1 mutant, active compounds read high
How it was run: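 Strain with an altered DNA repair or cell cycle pathway exposed to compound. Growth then measured. Value = inhibition versus vehicle control.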

[7] = NCI Yeast Anticancer Drug Screen. Data for the rad18 strain (AID 177); details: S. cerevisiae rad18 mutant growth inhibition, active compounds read high
How it was run: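 DNA-repair-defective yeast; compound treatment; growth inhibition scored against vehicle.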

[8] = NCI Yeast Anticancer Drug Screen. Data for the rad52 strain (AID 147);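 also: 0% = growth of vehicle-treated control cultures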; details: S. cerevisiae rad52 mutant growth inhibition, active compounds read high
How it was run: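 Growth of repair-deficient yeast cells was compared between compound-treated and vehicle-treated cultures to give percent inhibition.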

[9] = NCI Yeast Anticancer Drug Screen. Data for the CLN2oe strain (AID 163);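 also: 0% = growth of vehicle-only control cultures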; details: S. cerevisiae CLN2oe strain, active compounds read high
How it was run: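 Cells of an engineered yeast line with disturbed cell-cycle regulation are treated with compound. Inhibition of growth is then calculated relative to the vehicle-treated reference.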

[10] = NCI Yeast Anticancer Drug Screen. Data for the mgt1 strain (AID 153); details: S. cerevisiae mgt1 mutant growth inhibition, active compounds read high
How it was run: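 Compounds were applied to mgt1 mutant yeast, and growth was then compared against vehicle-treated control cultures to give percent inhibition.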

Measured: growth inhibition

CCOC(=O)NC1CCc2cc(OC)c(OC)c(OC)c2-c2ccc(OC)c(=O)cc21 (stereo not given)
inactive: [1]; at 1.2 µM 1% | [1]; at 3.7 µM -1% | [1]; at 11.0 µM 0% | [1]; at 33.0 µM -2% | [1]; at 100.0 µM 23% | [2]; at 1.2 µM -1% | [2]; at 3.7 µM -12% | [2]; at 11.0 µM 0% | [2]; at 33.0 µM -5% | [2]; at 100.0 µM 0% | [3]; at 1.2 µM -1% | [3]; at 3.7 µM -3% | [3]; at 11.0 µM -2% | [3]; at 33.0 µM -5% | [3]; at 100.0 µM -5% | [4]; at 1.2 µM -1% | [4]; at 3.7 µM -1% | [4]; at 11.0 µM -1% | [4]; at 33.0 µM -1% | [4]; at 100.0 µM -1% | [5]; at 1.2 µM -1% | [5]; at 3.7 µM -1% | [5]; at 11.0 µM 0% | [5]; at 33.0 µM 0% | [5]; at 100.0 µM 0% | [6]; at 1.2 µM 1% | [6]; at 3.7 µM 0% | [6]; at 11.0 µM 2% | [6]; at 33.0 µM 0% | [6]; at 100.0 µM 0% | [7]; at 1.2 µM 1% | [7]; at 3.7 µM -1% | [7]; at 11.0 µM -1% | [7]; at 33.0 µM 0% | [7]; at 100.0 µM 5%

O=C1Nc2ccccc2NC1C1OC(c2ccccc2)=CC1=O (stereo not given)
inactive: [8]; at 1.2 µM 18% | [8]; at 3.7 µM 34% | [8]; at 11.0 µM 32% | [8]; at 33.0 µM 19% | [8]; at 100.0 µM 20% | [1]; at 1.2 µM 13% | [1]; at 3.7 µM 18% | [1]; at 11.0 µM 18% | [1]; at 33.0 µM 1% | [1]; at 100.0 µM -8% | [2]; at 1.2 µM 42% | [2]; at 3.7 µM 37% | [2]; at 11.0 µM 37% | [2]; at 33.0 µM 22% | [2]; at 100.0 µM 20% | [3]; at 1.2 µM 18% | [3]; at 3.7 µM 23% | [3]; at 11.0 µM 20% | [3]; at 33.0 µM 18% | [3]; at 100.0 µM 14% | [9]; at 1.2 µM -15% | [9]; at 3.7 µM 1% | [9]; at 11.0 µM -9% | [9]; at 33.0 µM 5% | [9]; at 100.0 µM 23% | [4]; at 1.2 µM -18% | [4]; at 3.7 µM -11% | [4]; at 11.0 µM -11% | [4]; at 33.0 µM -8% | [4]; at 100.0 µM -2% | [5]; at 1.2 µM 32% | [5]; at 3.7 µM 39% | [5]; at 11.0 µM 44% | [5]; at 33.0 µM 1% | [5]; at 100.0 µM 36% | [6]; at 1.2 µM 14% | [6]; at 3.7 µM 23% | [6]; at 11.0 µM 29% | [6]; at 33.0 µM 30% | [6]; at 100.0 µM 18% | [7]; at 1.2 µM 26% | [7]; at 3.7 µM 23% | [7]; at 11.0 µM 17% | [7]; at 33.0 µM 24% | [7]; at 100.0 µM 16%

Cc1ccc(N2C(=O)/C(=C3\Sc4c(nc(C)[nH]c4=O)N3c3ccccc3)SC2=S)cc1
inactive: [8]; at 1.2 µM 1% | [8]; at 3.7 µM -1% | [8]; at 11.0 µM -7% | [8]; at 33.0 µM -7% | [8]; at 100.0 µM -9% | [1]; at 1.2 µM 0% | [1]; at 3.7 µM -2% | [1]; at 11.0 µM -1% | [1]; at 33.0 µM 0% | [1]; at 100.0 µM -2% | [2]; at 1.2 µM -1% | [2]; at 3.7 µM 0% | [2]; at 11.0 µM -1% | [2]; at 33.0 µM -3% | [2]; at 100.0 µM -7% | [3]; at 1.2 µM -1% | [3]; at 3.7 µM 4% | [3]; at 11.0 µM 0% | [3]; at 33.0 µM -2% | [3]; at 100.0 µM -2% | [9]; at 1.2 µM -2% | [9]; at 3.7 µM 2% | [9]; at 11.0 µM 5% | [9]; at 33.0 µM 3% | [9]; at 100.0 µM 2% | [4]; at 1.2 µM 0% | [4]; at 3.7 µM 1% | [4]; at 11.0 µM 1% | [4]; at 33.0 µM 0% | [4]; at 100.0 µM 0% | [5]; at 1.2 µM 0% | [5]; at 3.7 µM -4% | [5]; at 11.0 µM -9% | [5]; at 33.0 µM -7% | [5]; at 100.0 µM 8% | [6]; at 1.2 µM -2% | [6]; at 3.7 µM -3% | [6]; at 11.0 µM -4% | [6]; at 33.0 µM -6% | [6]; at 100.0 µM -9%

CCCCC/C(C)=N/Nc1ccc([N+](=O)[O-])cc1[N+](=O)[O-]
inactive: [8]; at 1.2 µM -1% | [8]; at 3.7 µM 1% | [8]; at 11.0 µM 1% | [8]; at 33.0 µM 1% | [8]; at 100.0 µM 1% | [1]; at 1.2 µM -2% | [1]; at 3.7 µM -6% | [1]; at 11.0 µM -3% | [1]; at 33.0 µM -2% | [1]; at 100.0 µM -2% | [2]; at 1.2 µM 1% | [2]; at 3.7 µM 3% | [2]; at 11.0 µM 3% | [2]; at 33.0 µM 6% | [2]; at 100.0 µM 12% | [10]; at 1.2 µM -5% | [10]; at 3.7 µM -1% | [10]; at 11.0 µM -1% | [10]; at 33.0 µM 1% | [10]; at 100.0 µM 0% | [3]; at 1.2 µM 4% | [3]; at 3.7 µM 2% | [3]; at 11.0 µM 2% | [3]; at 33.0 µM 6% | [3]; at 100.0 µM 3% | [9]; at 1.2 µM -2% | [9]; at 3.7 µM -1% | [9]; at 11.0 µM -2% | [9]; at 33.0 µM 2% | [9]; at 100.0 µM 2% | [4]; at 1.2 µM -10% | [4]; at 3.7 µM -10% | [4]; at 11.0 µM -6% | [4]; at 33.0 µM -10% | [4]; at 100.0 µM -8% | [5]; at 1.2 µM -2% | [5]; at 3.7 µM -1% | [5]; at 11.0 µM -1% | [5]; at 33.0 µM 1% | [5]; at 100.0 µM 2% | [6]; at 1.2 µM -12% | [6]; at 3.7 µM 7% | [6]; at 11.0 µM 4% | [6]; at 33.0 µM 5% | [6]; at 100.0 µM 5% | [7]; at 1.2 µM -2% | [7]; at 3.7 µM 0% | [7]; at 11.0 µM 0% | [7]; at 33.0 µM 2% | [7]; at 100.0 µM 7%
